These are yes or no findings as the source states them, for the method shown. In cells and extracts the contact can be indirect. Some binding calls cover weakened binding; strength is not graded here.
Target: filamin A (human (endogenous in THP1)), P21333
Assay: co-IP; lysates of cells overexpressing CaSR (50 mM Tris HCl pH 7.4, 150 mM NaCl, 10% glycerol, 0.5% NP-40); 500 ug protein with 2 ug anti-FLNA antibody 4 h at 4 °C, Dynabeads Protein G overnight at 4 °C, washed with ice cold RIPA buffer; immunoblot for CaSR and FLNA
Conditions: remark: other sources report otherwise

B1: calcium-sensing receptor, P41180 20-1078 (receptor)
chain: YGPDQRAQKKGDIILGGLFPIHFGVAAKDQDLKSRPESVECIRYNFRGFRWLQAMIFAIEEINSSPALLPNLTLGYRIFDTCNTVSKALEATLSFVAQNKIDSLNLDEFCNCSEHIPSTIAVVGATGSGVSTAVANLLGLFYIPQVSYASSSRLLSNKNQFKSFLRTIPNDEHQATAMADIIEYFRWNWVGTIAADDDYGRPGIEKFREEAEERDICIDFSELISQYSDEEEIQHVVEVIQNSTAKVIVVFSSGPDLEPLIKEIVRRNITGKIWLASEAWASSSLIAMPQYFHVVGGTIGFALKAGQIPGFREFLKKVHPRKSVHNGFAKEFWEETFNCHLQEGAKGPLPVDTFLRGHEESGDRFSNSSTAFRPLCTGDENISSVETPYIDYTHLRISYNVYLAVYSIAHALQDIYTCLPGRGLFTNGSCADIKKVEAWQVLKHLRHLNFTNNMGEQVTFDECGDLVGNYSIINWHLSPEDGSIVFKEVGYYNVYAKKGERLFINEEKILWSGFSREVPFSNCSRDCLAGTRKGIIEGEPTCCFECVECPDGEYSDETDASACNKCPDDFWSNENHTSCIAKEIEFLSWTEPFGIALTLFAVLGIFLTAFVLGVFIKFRNTPIVKATNRELSYLLLFSLLCCFSSSLFFIGEPQDWTCRLRQPAFGISFVLCISCILVKTNRVLLVFEAKIPTSFHRKWWGLNLQFLLVFLCTFMQIVICVIWLYTAPPSSYRNQELEDEIIFITCHEGSLMALGFLIGYTCLLAAICFFFAFKSRKLPENFNEAKFITFSMLIFFIVWISFIPAYASTYGKFVSAVEVIAILAASFGLLACIFFNKIYIILFKPSRNTIEEVRCSTAAHAFKVAARATLRRSNVSRKRSSSLGGSTGSTPSSSISSKSNSEDPFPQPERQKQQQPLALTQQEQQQQPLTLPQQQRSQQQPRCKQKVIFGSGTVTFSLSFDEPQKNAMAHRNSTHQNSLEAQKSSDTLTRHEPLLPLQCGETDLDLTVQETGLQGPVGGDQRPEVEDPEELSPALVVSSSQSFVISGGGSTVTENVVNS
binding: binds
